Test results reported in article PMC6026704.
These are yes or no findings as the source states them, for the method shown. Tags and fused reporters may be left off the sequences shown.

Target: T1, 6xHis-SIKE-FL (pET15b, N-terminal 6xHis tag) (human) (UniProt Q9BRV8)
T1 sequence: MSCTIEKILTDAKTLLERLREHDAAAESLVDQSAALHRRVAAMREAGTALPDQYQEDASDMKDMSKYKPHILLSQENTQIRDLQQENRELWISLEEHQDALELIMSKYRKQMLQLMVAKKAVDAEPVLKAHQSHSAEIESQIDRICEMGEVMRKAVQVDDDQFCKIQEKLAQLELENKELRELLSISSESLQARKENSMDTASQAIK
Experiment: pull-down; in vitro precipitation (IVP): 6xHis-tagged SIKE (8 uM) pre-incubated with the partner (4-11.2 uM; molar ratios 1:0.5, 1:1, 1:1.4) in 50 mM NaH2PO4 pH 8, 0.3 M NaCl at 4 °C, precipitated with Ni-NTA agarose at RT, washed with 50 mM imidazole, eluted with 250 mM imidazole; SDS-PAGE of bound and unbound samples; both purified

**Q.** “lysozyme (from UniProt P00698 19-147) (enzyme)” was tested. Which binding did it give?
**A.** Its binding is “no binding (tested: 4–11.2 μM lysozyme with 8 μM SIKE)”.
